In US20100221248A1 one finds binding data, which are given here for one molecule.

No constants are given. Whether binding was seen depends on the method and setting. A result given as binding can be weak or reduced; the word gives no strength. Sequences can lack the tags named with a protein.

The target of this assay is RIIIA 158F 176F tetramer (biotinylated human FcγRIIIA complexed to streptavidin-PE) (human). In words: blocking assay, flow cytometry; competitor yeast-displayed IIIA537. In general terms: A flow cytometer gives signals particle by particle.

B1: MBP-IIIA537 (designed binder, not shown: large carriers)
chain: LGENLYFQSVSDVPRDLEVVVATPTSLLINWDLPFSDSYRITYGETGGNSPVQGFTVPGTESIATISGLKPGVDYTITVYAVASSGSNSYPISINYRTEIDKPSQ
Take B1: the binding result is “binds”.
